The target of this series is T1, HMGB1 (Mus musculus) (UniProt P63158).
T1 sequence (limits assumed): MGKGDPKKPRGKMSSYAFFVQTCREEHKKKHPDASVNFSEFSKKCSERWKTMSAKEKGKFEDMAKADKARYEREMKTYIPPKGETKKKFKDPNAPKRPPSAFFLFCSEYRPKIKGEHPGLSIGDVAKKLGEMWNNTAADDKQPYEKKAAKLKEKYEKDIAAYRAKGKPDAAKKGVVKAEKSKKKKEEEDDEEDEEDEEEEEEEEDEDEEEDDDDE
In words: competition with a labelled probe. The note with it: weaker than CpG-M(S) against biotin-CpG-B(S), 0-32 uM; purified recombinant protein; single-stranded DNA; variant of CpG-M(S).

A weaker result is weaker than the reference pair of the same experiment. Protein sequences can lack the tags named with them.

In the case of “TCCATGAGGTTCCTGATGCT [ODN(CpG-M) phosphodiester]”, the binding result is “binds more weakly”.
